The results in this text go back to article PMC6133967.

Protein sequences, listed by entry. Tags and fused reporters are not part of them.
UniProt P11802: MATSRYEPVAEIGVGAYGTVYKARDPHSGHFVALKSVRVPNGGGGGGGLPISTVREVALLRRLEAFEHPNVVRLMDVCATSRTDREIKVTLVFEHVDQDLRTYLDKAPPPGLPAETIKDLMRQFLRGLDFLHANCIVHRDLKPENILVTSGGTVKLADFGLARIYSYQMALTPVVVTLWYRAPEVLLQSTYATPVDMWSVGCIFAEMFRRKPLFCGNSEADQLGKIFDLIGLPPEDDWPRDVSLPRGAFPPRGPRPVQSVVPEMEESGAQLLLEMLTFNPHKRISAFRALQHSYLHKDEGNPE
UniProt Q00987: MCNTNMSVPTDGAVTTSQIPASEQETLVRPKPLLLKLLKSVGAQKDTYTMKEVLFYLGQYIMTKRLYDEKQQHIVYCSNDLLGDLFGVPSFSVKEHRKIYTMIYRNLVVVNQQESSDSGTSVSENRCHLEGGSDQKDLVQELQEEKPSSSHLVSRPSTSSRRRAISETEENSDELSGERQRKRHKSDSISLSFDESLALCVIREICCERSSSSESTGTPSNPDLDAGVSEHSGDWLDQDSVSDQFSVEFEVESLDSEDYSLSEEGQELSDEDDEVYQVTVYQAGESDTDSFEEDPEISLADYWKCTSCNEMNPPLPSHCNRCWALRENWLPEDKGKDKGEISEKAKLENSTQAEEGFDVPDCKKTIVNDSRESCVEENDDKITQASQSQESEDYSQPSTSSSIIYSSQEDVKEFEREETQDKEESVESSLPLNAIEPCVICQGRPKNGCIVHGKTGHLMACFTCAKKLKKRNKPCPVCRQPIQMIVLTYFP

Results are given in words; binding and its absence hold for the method and conditions named. In cells and extracts the contact can be indirect. Some results given as binding are weak or reduced against the parent protein; the word gives no strength.

For test [1], the target named is Cyclin-dependent kinase 4 (human (endogenous in SJSA)) (UniProt P11802). Briefly: co-IP; endogenous proteins, lysates of SJSA cells (treated with 20 µM MG-132 for 5 h, or with Nutlin and/or PD0332991); Co-IP buffer 50 mM Tris-HCl pH 7.5, 300 mM NaCl, 1% NP-40, 0.1% sodium deoxycholate; 3 µg antibody overnight, Protein G Sepharose; immunoblot. On the technique in general: A western blot detects proteins with antibodies after separation by electrophoresis.

Test [2] deals with Cyclin D1 (human (endogenous in SJSA)) (UniProt P24385). The description is as above.
For test [3], the target named is Cyclin D1 (plasmid-based overexpression in H1299 cells) (UniProt P24385). Briefly: co-IP; exogenous Co-IP, lysates of H1299 cells transfected with plasmids 24 h before harvest; same Co-IP buffer and procedure, one well per antibody; immunoblot.

As to Cyclin D1 (from UniProt P24385 1-295), the binding entry in test [1] is “binds”.
For the substance MDM2 (from UniProt Q00987 1-491), the binding result in test [2] and in test [1] was “binds” each time.
As to p53 (from UniProt P04637 1-393), in test [2], the binding entry is “binds”.
Consider “p53 (plasmid-based overexpression in H1299 cells) (from UniProt P04637 1-393)”, for which the binding entry in test [3] is on record as “binds”.
